Values from PubChem BioAssay AID1053208 (Peter MacCallum Cancer Centre, 2014).
The whole screen tested about 17,000 reagents; this is a random part of them. Over the whole deposit, 788 (4.7%) are marked active. 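Calls rest on z-score classes alone; an extra cut-off of viability at most 70% of control was not applied to them.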 A number with no mark means an inactive call. Some reagents were tested in more than one well and are listed for each. Further read-outs or replicates are left out here.

Assay: 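Genes whose silencing cuts survival of bone tumour cells only with doxorubicin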 (primary screen)
System: mouse osteosarcoma cells, early-passage culture from an engineered mouse model of fibroblastic bone tumour
Knock-down reagent: siRNA pool against mouse genes, 40 nM
Timing: about 120 h (48 h before drug, then 72 h with drug)
Challenge: doxorubicin 100 nM for 72 h, roughly 30-40% inhibitory dose
Detection: 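Luminescent ATP signal taken as viability with or without 100 nM doxorubicin for 72 h; mean of two wells set against non-targeting siRNA and turned into robust z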
Reading the numbers: viability z-score with doxorubicin: higher = more viable cells under doxorubicin; viability z-score without drug: higher = more viable cells with knock-down alone
Hit rule: 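a pool counts as active when its viability z-score with doxorubicin is -2 or below and its z-score without drug lies between -2 and 2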

| gene knocked down | combined z-score class | viability z-score with doxorubicin | viability z-score without drug |
| --- | --- | --- | --- |
| Stip1 | no change with or without drug | -1.12 | -1.35 |
| Serpinb1a | no change with or without drug | 0.9 | 0.67 |
| Vps41 | no change with or without drug | -0.11 | 1.35 |
| Wnt5a | no change with or without drug | -0.9 | -1.35 |
| Cd320 | no change with or without drug | 0.11 | 0.67 |
| Ccr3 | no change with or without drug | 0.11 | -0.17 |
| Scn3a | no change with or without drug | -0.79 | 1.18 |
| Mmgt2 | no change with or without drug | 0.67 | -0.17 |
| Frmd5 | no change with or without drug | 0.67 | 0.17 |
| Adamts8 | no change with or without drug | 1.12 | 0.84 |
| Trem3 | no change with or without drug | 0.11 | 1.52 |
| Picalm | no change with or without drug | 0.22 | 1.18 |
| Ano5 | no change with or without drug | -0.22 | 0.17 |
| Copz2 | no change with or without drug | -0.67 | -0.34 |
| Plagl2 | no change with or without drug | 1.01 | 0.51 |
| Fxyd6 | no change with or without drug | 0.11 | 0.34 |
| Pdk4 | no change with or without drug | -0.67 | 0.34 |
| Kcnk3 | no change with or without drug | -0.67 | -0.84 |
| Rfxap | no change with or without drug | -1.12 | 0.51 |
| Or2v2 | no change with or without drug | -0.22 | -0.67 |
| Fv1 | no change with or without drug | 0.22 | 0 |
| Taf4b | no change with or without drug | 0.11 | 0.51 |
| Tcf23 | no change with or without drug | 0.9 | -0.51 |
| Gpr119 | no change with or without drug | 0.45 | -1.85 |
| Gpr119 | low cell count without drug only | -0.22 | -2.02 |
| Aknaos | low cell count with doxorubicin only (active) | -2.47 | -1.52 |
| Ddt | no change with or without drug | 1.24 | 0.17 |
| Srrm3 | no change with or without drug | 0.67 | 0.84 |
| Mdga2 | no change with or without drug | -0.34 | -0.84 |
| AA986860 | no change with or without drug | 0.45 | -0.51 |
| Tspan3 | no change with or without drug | 1.12 | 0.34 |
| 4930465K10Rik | low cell count with doxorubicin only (active) | -2.92 | 1.52 |
| Vmn1r46 | no change with or without drug | -0.9 | 0.17 |
| Ppie | low cell count with and without drug | -2.02 | -2.19 |

Sorted by “viability z-score without drug” (high to low): 4 of the entries above
| gene knocked down | combined z-score class | viability z-score with doxorubicin | viability z-score without drug |
| --- | --- | --- | --- |
| Trem3 | no change with or without drug | 0.11 | 1.52 |
| Picalm | no change with or without drug | 0.22 | 1.18 |
| Adamts8 | no change with or without drug | 1.12 | 0.84 |
| Ano5 | no change with or without drug | -0.22 | 0.17 |
